{"source": "paper doi:10.1101/2024.03.26.586525", "about": "(bioRxiv, 2024)", "binders": {"B1": {"name": "aldehyde dehydrogenase 4 (Ald4) (enzyme, S. cerevisiae (endogenous in SK1 cells), UniProt P46367 25-519, looked up)", "chain": "SHLPMTVPIKLPNGLEYEQPTGLFINNKFVPSKQNKTFEVINPSTEEEICHIYEGREDDVEEAVQAADRAFSNGSWNGIDPIDRGKALYRLAELIEQDKDVIASIETLDNGKAISSSRGDVDLVINYLKSSAGFADKIDGRMIDTGRTHFSYTKRQPLGVCGQIIPWNFPLLMWAWKIAPALVTGNTVVLKTAESTPLSALYVSKYIPQAGIPPGVINIVSGFGKIVGEAITNHPKIKKVAFTGSTATGRHIYQSAAAGLKKVTLELGGKSPNIVFADAELKKAVQNIILGIYYNSGEVCCAGSRVYVEESIYDKFIEEFKAASESIKVGDPFDESTFQGAQTSQMQLNKILKYVDIGKNEGATLITGGERLGSKGYFIKPTVFGDVKEDMRIVKEEIFGPVVTVTKFKSADEVINMANDSEYGLAAGIHTSNINTALKVADRVNAGTVWINTYNDFHHAVPFGGFNASGLGREMSVDALQNYLQVKAVRAKLDE"}, "B2": {"name": "Acs1 C-terminally tagged with GFP (Acs1-GFP) (enzyme, UniProt Q01574 1-713)", "chain": "MSPSAVQSSKLEEQSSEIDKLKAKMSQSAATAQQKKEHEYEHLTSVKIVPQRPISDRLQPAIATHYSPHLDGLQDYQRLHKESIEDPAKFFGSKATQFLNWSKPFDKVFIPDPKTGRPSFQNNAWFLNGQLNACYNCVDRHALKTPNKKAIIFEGDEPGQGYSITYKELLEEVCQVAQVLTYSMGVRKGDTVAVYMPMVPEAIITLLAISRIGAIHSVVFAGFSSNSLRDRINDGDSKVVITTDESNRGGKVIETKRIVDDALRETPGVRHVLVYRKTNNPSVAFHAPRDLDWATEKKKYKTYYPCTPVDSEDPLFLLYTSGSTGAPKGVQHSTAGYLLGALLTMRYTFDTHQEDVFFTAGDIGWITGHTYVVYGPLLYGCATLVFEGTPAYPNYSRYWDIIDEHKVTQFYVAPTALRLLKRAGDSYIENHSLKSLRCLGSVGEPIAAEVWEWYSEKIGKNEIPIVDTYWQTESGSHLVTPLAGGVTPMKPGSASFPFFGIDAVVLDPNTGEELNTSHAEGVLAVKAAWPSFARTIWKNHDRYLDTYLNPYPGYYFTGDGAAKDKDGYIWILGRVDDVVNVSGHRLSTAEIEAAIIEDPIVAECAVVGFNDDLTGQAVAAFVVLKNKSSWSTATDDELQDIKKHLVFTVRKDIGPFAAPKLIILVDDLPKTRSGKIMRRILRKILAGESDQLGDVSTLSNPGIVRHLIDSVKL"}, "B3": {"name": "acetyl-coenzyme A synthetase 1 (Acs1) (enzyme, S. cerevisiae (endogenous in SK1 cells), UniProt Q01574 1-713, looked up)", "chain": "B2 chain"}, "B4": {"name": "Acs1 wild-type control (ACS1^WT, reconstituted acs1Δ strain) (enzyme, UniProt Q01574 1-713)", "chain": "B2 chain"}, "B5": {"name": "Ald4 interface mutant (ald4^int) (enzyme, UniProt P46367 25-519)", "chain": "B1 chain with K36E, K225E, I226A, Q345A, N349A, K353A, D356A, N360A"}, "B6": {"name": "Acs1 K675A (acs1^K675A) (enzyme, UniProt Q01574 1-713)", "chain": "B2 chain with K675A"}, "B7": {"name": "Acs1 R264W (acs1^R264W) (enzyme, UniProt Q01574 1-713)", "chain": "B2 chain with R264W"}}, "key": {"[1]": {"target": "aldehyde dehydrogenase 4 (Ald4) (S. cerevisiae (endogenous in SK1 cells)) (UniProt P46367)", "experiment": "cryo-EM structure"}, "[2]": {"target": "aldehyde dehydrogenase 4 (Ald4) (S. cerevisiae (endogenous in SK1 cells)) (UniProt P46367)", "experiment": "cryo-electron tomography"}, "[3]": {"target": "aldehyde dehydrogenase 4 (Ald4) (S. cerevisiae (endogenous in SK1 cells)) (UniProt P46367)", "experiment": "cryo-electron tomography", "remark": "listed apart in the source"}, "[4]": {"target": "Acs1 C-terminally tagged with GFP (Acs1-GFP) (S. cerevisiae) (UniProt Q01574)", "experiment": "cryo-electron tomography"}, "[5]": {"target": "acetyl-coenzyme A synthetase 1 (Acs1) (S. cerevisiae (endogenous in SK1 cells)) (UniProt Q01574)", "experiment": "cryo-EM structure"}, "[6]": {"target": "acetyl-coenzyme A synthetase 1 (Acs1) (S. cerevisiae (endogenous in SK1 cells)) (UniProt Q01574)", "experiment": "cryo-electron tomography"}, "[7]": {"target": "acetyl-coenzyme A synthetase 1 (Acs1) (S. cerevisiae (endogenous in SK1 cells)) (UniProt Q01574)", "experiment": "cryo-electron tomography", "remark": "listed apart in the source"}, "[8]": {"target": "Acs1 wild-type control (ACS1^WT, reconstituted acs1Δ strain) (S. cerevisiae) (UniProt Q01574)", "experiment": "cryo-electron tomography"}, "[9]": {"target": "Ald4 interface mutant (ald4^int) (S. cerevisiae) (UniProt P46367)", "experiment": "cryo-electron tomography"}, "[10]": {"target": "Acs1 K675A (acs1^K675A) (S. cerevisiae) (UniProt Q01574)", "experiment": "cryo-electron tomography"}, "[11]": {"target": "Acs1 R264W (acs1^R264W) (S. cerevisiae) (UniProt Q01574)", "experiment": "cryo-electron tomography"}}, "note": "Where a chain is given by its changes, count along the chain named. Numbers in names are those of the source. No constants are given. Whether binding was seen depends on the method and setting. Some entries that bind do so weakly or less than the wild type. For some assays here: Sequences can lack the tags named with a protein."}
{"binder": "B1", "values": [{"measurement": "binding", "setting": "[1]", "value": "binds"}, {"measurement": "binding", "setting": "[2]", "value": "binds"}, {"measurement": "binding", "setting": "[3]", "value": "binds"}]}
{"binder": "B2", "values": [{"measurement": "binding", "setting": "[4]", "value": "binds"}]}
{"binder": "B3", "values": [{"measurement": "binding", "setting": "[5]", "value": "binds"}, {"measurement": "binding", "setting": "[6]", "value": "binds"}, {"measurement": "binding", "setting": "[7]", "value": "binds"}]}
{"binder": "B4", "values": [{"measurement": "binding", "setting": "[8]", "value": "binds"}]}
{"binder": "B5", "values": [{"measurement": "binding", "setting": "[9]", "value": "no binding"}]}
{"binder": "B6", "values": [{"measurement": "binding", "setting": "[10]", "value": "no binding"}]}
{"binder": "B7", "values": [{"measurement": "binding", "setting": "[11]", "value": "no binding"}]}
